Reference: PubChem BioAssay AID504791 (Drosophila RNAi Screening Center, 2011)
Screen: 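Factors in Argonaute-based small RNA production and activity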 (primary screen). System: Drosophila S2-derived reporter cells. Knock-down reagent: long dsRNA against Drosophila genes, about 150-250 ng dsRNA per well (siRNA assay); about 80-120 ng (miRNA assay). Timing: about 5 days (siRNA assay); about 4 days (miRNA assay). Conditions: copper sulfate induction of reporters: 25 µM (siRNA assay); 200 mM stated (miRNA assay), 1-2 days before reading. Read-out: 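Per-well ratio of Renilla over firefly light, expressed relative to that plate's average ratio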. Rule for the call: 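a well was a first-pass pick when its plate-scaled ratio rose above 1.5 (siRNA assay) or 1.6 (miRNA assay), or dropped below 0.6; a gene counted only if two separate dsRNAs agreed on retest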.
The screen tested about 23,000 reagents; this is a random part of those with a known target gene and a result. Over the whole deposit, 199 (0.86%) are marked active. 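Plate-scaled ratios behind the calls are not deposited; printed light signals are raw; many rows marked increased or decreased are still called inactive.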 Entries without a mark were called inactive. The record does not give: the direction of the score.

CG7166 (GeneID 40401) [DRSC11809] → stable assay Renilla, run 1 (luminescence) = 8265; stable assay firefly, run 1 (luminescence) = 4.74e5
nwk (GeneID 39052) [DRSC10442] → stable assay Renilla, run 1 (luminescence) = 7134; stable assay firefly, run 1 (luminescence) = 4.23e5
Rh3 (GeneID 42398) [DRSC16822] → stable assay Renilla, run 1 (luminescence) = 9061; stable assay firefly, run 1 (luminescence) = 2.91e5
CR15280 (GeneID 3885605) [DRSC01953] → stable assay Renilla, run 1 (luminescence) = 6682; stable assay firefly, run 1 (luminescence) = 4.57e5
DCP2 (GeneID 39722) [DRSC10597] → stable siRNA reporter change = reporter ratio lowered past the hit cutoff (active); miRNA reporter change = reporter ratio lowered past the hit cutoff; stable assay Renilla, run 1 (luminescence) = 5119; stable assay firefly, run 1 (luminescence) = 3.82e5
Vps2 (GeneID 43164) [DRSC14886] → stable assay Renilla, run 1 (luminescence) = 8308; stable assay firefly, run 1 (luminescence) = 3.55e5
clumsy (GeneID 35394) [DRSC03111] → stable assay Renilla, run 1 (luminescence) = 5902; stable assay firefly, run 1 (luminescence) = 3.27e5
Cpr (GeneID 33883) [DRSC03293] → stable assay Renilla, run 1 (luminescence) = 10846; stable assay firefly, run 1 (luminescence) = 8.78e5

The list goes on (2 carried over from the part before).
clumsy (GeneID 35394) [DRSC03111] → stable assay Renilla, run 1 (luminescence) = 5902; stable assay firefly, run 1 (luminescence) = 3.27e5
Cpr (GeneID 33883) [DRSC03293] → stable assay Renilla, run 1 (luminescence) = 10846; stable assay firefly, run 1 (luminescence) = 8.78e5
CG17652 (GeneID 33353) [DRSC00511] → stable assay Renilla, run 1 (luminescence) = 7018; stable assay firefly, run 1 (luminescence) = 3.89e5
CG9667 (GeneID 40960) [DRSC16535] → stable assay Renilla, run 1 (luminescence) = 7387; stable assay firefly, run 1 (luminescence) = 4.80e5
CG15020 (GeneID 38544) [DRSC08474] → stable assay Renilla, run 1 (luminescence) = 5299; stable assay firefly, run 1 (luminescence) = 3.97e5
Cpr47Ee (GeneID 36193) [DRSC06343] → stable assay Renilla, run 1 (luminescence) = 5615; stable assay firefly, run 1 (luminescence) = 2.25e5
Cpr47Ee (GeneID 36193) [DRSC23164] → stable assay Renilla, run 1 (luminescence) = 5919; stable assay firefly, run 1 (luminescence) = 3.24e5
su(w[a]) (GeneID 31054) [DRSC18840] → stable assay Renilla, run 1 (luminescence) = 8650; stable assay firefly, run 1 (luminescence) = 4.94e5
Klf15 (GeneID 31410) [DRSC17742] → stable assay Renilla, run 1 (luminescence) = 5863; stable assay firefly, run 1 (luminescence) = 3.38e5
CG18301 (GeneID 34451) [DRSC02662] → stable assay Renilla, run 1 (luminescence) = 7242; stable assay firefly, run 1 (luminescence) = 3.64e5
Lcp65Ae (GeneID 45018) [DRSC11212] → stable assay Renilla, run 1 (luminescence) = 8774; stable assay firefly, run 1 (luminescence) = 6.00e5
PK1-R (GeneID 41713) [DRSC16577] → stable assay Renilla, run 1 (luminescence) = 7479; stable assay firefly, run 1 (luminescence) = 3.81e5
betaTub56D (GeneID 37238) [DRSC07583] → stable assay Renilla, run 1 (luminescence) = 8092; stable assay firefly, run 1 (luminescence) = 3.73e5
